Results are given in words; binding and its absence hold for the method and conditions named. For some assays here: In cells and extracts the contact can be indirect.

The target of experiment [1] is Cub-XopLXccΔLRR (Xanthomonas campestris pv. campestris 8004). The experiment is described as follows: two-hybrid; split-ubiquitin yeast two-hybrid, point-to-point co-transformation of yeast NMY51; Cub fusions (pDHB1) as bait, NubG fusions (pPR3N) as prey; growth on selective medium (-TLHA) and lacZ (X-gal) activity, 30 °C.
Experiment [2] deals with XopLXccΔLRR (BiFC fusion) (Xanthomonas campestris pv. campestris 8004). Put plainly: split reporter; BiFC with nEYFP and cEYFP fusions in transfected Arabidopsis protoplasts; YFP fluorescence detected after 8 h by confocal microscopy.

B1: NubG-PPI1Δ1-358aa (domain or fragment, UniProt O23144 359-612)
chain: EDYEKRILQSLDSRQLSRDGRMRNPDEKPLIAPEAAPSKATPSETEVVPKAKAKPQPKEEPVSAPKPDATVAQNTEKAKDAVKVKNVADDDDDEVYGLGKPQKEEKPVDAATAKEMRKQEEIAKAKQAMERKKKLAEKAAAKAAIRAQKEAEKKEKKEQEKKAKKKTGGNTETETEEVPEASEEEIEAPVQEEKPQKEKVFKEKPIRNRTRGRGPETIPRAILKRKKSTNYWVYAAPAALVVLLLLVLGYYYVL
On to B1, for which the binding entry in experiment [1] was “no binding”.

B2: cEYFP-PPI1Δ1-358aa (domain or fragment, UniProt O23144 359-612)
chain: EDYEKRILQSLDSRQLSRDGRMRNPDEKPLIAPEAAPSKATPSETEVVPKAKAKPQPKEEPVSAPKPDATVAQNTEKAKDAVKVKNVADDDDDEVYGLGKPQKEEKPVDAATAKEMRKQEEIAKAKQAMERKKKLAEKAAAKAAIRAQKEAEKKEKKEQEKKAKKKTGGNTETETEEVPEASEEEIEAPVQEEKPQKEKVFKEKPIRNRTRGRGPETIPRAILKRKKSTNYWVYAAPAALVVLLLLVLGYYYVL
As to B2, in experiment [2], the binding entry was “no binding”.

For the origin of these results see article PMC11394911.
